According to PubChem BioAssay AID587 (National Center for Advancing Translational Sciences (NCATS), 2007):
The campaign covered roughly 59,000 compounds. About 35 (0.06%) were called active. Inconclusive means that the source gave no clear call. Such entries were picked first, then a sample of the others. Rule as the data show it: active = max dye-equivalent concentration above about 10 nM; inconclusive = between about 1.1 nM and that limit; inactive = weaker than that.

Assay: qHTS Assay for Spectroscopic Profiling in Texas Red Spectral Region
Settings: Compound fluorescence, Texas Red channel, 547/618 nm; active compounds read high
Summary of the method: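 qHTS profiling of intrinsic compound fluorescence; 100 mM Tris pH 8.0; 15 min RT; ex 547 / em 618 nm; response expressed as Texas Red dye-equivalent concentration from six-point plate standard.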
With `COc1ccc(OC)c(C(=O)CSc2nnc(-c3cccs3)o2)c1` the max dye-equivalent concentration was “inactive”.
For `COCCCNC(=O)c1ccc(N2CCCC2)c(NS(=O)(=O)c2ccc(C)cc2)c1`, the max dye-equivalent concentration was inconclusive: 1.3 nM.
With `NCCOc1ccccn1` the max dye-equivalent concentration was inconclusive: 1.1 nM.
For `COC(=O)c1sc(N)c(C(=O)OC)c1CSc1nnc(-c2ccccc2Cl)n1C`, the max dye-equivalent concentration was inconclusive: 1.3 nM.
In the case of `O=C(NCc1ccc2c(c1)OCO2)C1CCN(S(=O)(=O)c2ccc(Br)s2)CC1`, the max dye-equivalent concentration is reported as “inactive”.
For `CN1CCN(C(=O)c2ccccc2N(Cc2ccccc2)S(C)(=O)=O)CC1`, the max dye-equivalent concentration was inconclusive: 1.2 nM.
For `O=C(Nc1cccnc1)c1noc2c1CCCC2`, the max dye-equivalent concentration was inconclusive: 1.2 nM.
In the case of `COC(=O)[C@H](CC(C)C)NC(=O)Nc1ccc2c(c1)OCCO2`, the max dye-equivalent concentration is reported as “inactive”.
For `CN1c2ccccc2-c2nc3ccccc3n2C1c1ccncc1` (configuration not stated), the max dye-equivalent concentration was inconclusive: 1.5 nM.
With `COCCNc1cc(-c2ccccc2C)ncn1` the max dye-equivalent concentration was “inactive”.
For `O=C(O)[C@H](Cc1c[nH]c2ccccc12)N1C(=O)c2ccccc2C1=O`, the max dye-equivalent concentration was inconclusive: 1.1 nM.
In the case of `O=C(OCC(=O)N1CCC(Cc2ccccc2)CC1)c1ccc[nH]c1=O`, the max dye-equivalent concentration is reported as inconclusive: 1.2 nM.
With `O=C(c1cccc(N2CCCC2=O)c1)N1CCN(c2ccccc2)CC1` the max dye-equivalent concentration was inconclusive: 1.3 nM.
With `COc1ccc(OCCCC(=O)N2CCCc3ccccc32)cc1` the max dye-equivalent concentration was inconclusive: 1.4 nM.
With `COc1ccc(C(=O)N2CCC3(CC2)CN(c2ccccn2)C3)cc1` the max dye-equivalent concentration was “inactive”.
With `CCCC(=O)Nc1cc(OC)c(OC)cc1C(=O)O` the max dye-equivalent concentration was inconclusive: 2.4 nM.
With `OCCNc1nc2ccccc2n1-c1ccccc1` the max dye-equivalent concentration was inconclusive: 1.5 nM.
With `N#CCCn1c(=O)c(-c2ccccc2)nc2cnc(OCc3ccccc3)nc21` the max dye-equivalent concentration was “inactive”.
With `Cc1cccc(N2CCN(C(=O)COc3cc(=O)n(C)c4ccccc34)CC2)c1C` the max dye-equivalent concentration was inconclusive: 1.7 nM.
In the case of `CCN1C(=O)C2(Nc3ccccc3-c3nc4ccccc4n32)c2cc(OC)ccc21` (configuration not stated), the max dye-equivalent concentration is reported as inconclusive: 2.1 nM.
For `CC1=C(CC(=O)O)c2cc(F)ccc2/C1=C\c1ccc(S(C)=O)cc1` (configuration not stated), the max dye-equivalent concentration was inconclusive: 1.2 nM.
With `COC(=O)C1=C(N)Oc2cc(C)n(Cc3ccco3)c(=O)c2C1c1cccc(Cl)c1` (configuration not stated) the max dye-equivalent concentration was inconclusive: 1.5 nM.
With `Cc1ccc(-n2c(=O)[nH]cc(C(=O)Nc3ccc4c(c3)OCCO4)c2=O)cc1` the max dye-equivalent concentration was inconclusive: 1.1 nM.
In the case of `CN(c1ccccc1)S(=O)(=O)c1ccc(C(=O)OCC(=O)NCc2ccco2)cc1`, the max dye-equivalent concentration is reported as inconclusive: 1.7 nM.
In the case of `COc1ccc(-c2nnc(SCC(=O)Nc3sc4c(c3C#N)CCC4)n2CC2CCCO2)cc1` (configuration not stated), the max dye-equivalent concentration is reported as inconclusive: 1.4 nM.
For `CCOc1ccc(NC(=O)CSc2nnc(-c3ccccc3Cl)n2Cc2ccco2)cc1`, the max dye-equivalent concentration was inconclusive: 1.9 nM.
With `O=c1c2ccccc2c(C=Nc2ccc(Cl)cn2)c(O)n1-c1cc(Cl)ccc1N1CCOCC1` the max dye-equivalent concentration was inconclusive: 1.1 nM.
For `O=C(CC1Nc2ccccc2NC1=O)NCc1cccnc1` (configuration not stated), the max dye-equivalent concentration was inconclusive: 1.1 nM.
In the case of `O=C1N(c2ccccc2)C2CS(=O)(=O)CC2N1c1ccc(Br)cc1` (configuration not stated), the max dye-equivalent concentration is reported as inconclusive: 1.3 nM.
For `Nc1nc(OCc2ccccc2)c2[nH]cnc2n1`, the max dye-equivalent concentration was inconclusive: 1.5 nM.
In the case of `COc1ccc(S(=O)(=O)N2CCN(C(=O)NC3CCCCC3)CC2)cc1OC`, the max dye-equivalent concentration is reported as inconclusive: 2.6 nM.
In the case of `CCCc1ccc(C(C)NC(=O)c2cnccn2)cc1` (configuration not stated), the max dye-equivalent concentration is reported as inconclusive: 1.3 nM.
With `CC(C)/C(=N/[N+](C)(C)C)c1ccccc1` the max dye-equivalent concentration was “inactive”.
With `Cn1c(=O)c2c(nc(NCc3ccco3)n2C)n(C)c1=O` the max dye-equivalent concentration was inconclusive: 2.1 nM.
With `Cc1ccc(C(=O)Nc2nnc(-c3cccs3)s2)cc1C` the max dye-equivalent concentration was “inactive”.
For `COCCN1C(=O)C(CC(=O)Nc2ccc(C(C)=O)cc2)SC1=Nc1ccccc1` (configuration not stated), the max dye-equivalent concentration was inconclusive: 1.8 nM.
With `CCOc1ccc(C2=Nn3c(nnc3-c3ccccc3)SC2)cc1Cl` the max dye-equivalent concentration was inconclusive: 1.6 nM.
With `COc1ccc(C(c2nnnn2Cc2cccs2)N2CCN(c3ccc(F)cc3)CC2)cc1OC` (configuration not stated) the max dye-equivalent concentration was inconclusive: 1.5 nM.
For `Cc1c(C(=O)O)[nH]c2c1C(=O)CC(c1ccccc1)C2` (configuration not stated), the max dye-equivalent concentration was inconclusive: 1.1 nM.
With `CCC(C)n1nccc1NC(=O)C(C)OC(=O)c1cc2ccccc2[nH]1` (configuration not stated) the max dye-equivalent concentration was inconclusive: 1.8 nM.
In the case of `COc1ccc(N2CCN(Cc3cc(=O)oc4ccc5ccccc5c34)CC2)cc1`, the max dye-equivalent concentration is reported as “inactive”.
For `CCCOc1ccc2oc(=O)c3c(c2c1)CCCN3C(=O)CN1CCN(c2ncccn2)CC1`, the max dye-equivalent concentration was inconclusive: 1.6 nM.
For `O=C(c1ccccc1F)N1CCN(S(=O)(=O)c2ccc(S(=O)(=O)N3CCCCC3)cc2)CC1`, the max dye-equivalent concentration was inconclusive: 1.9 nM.
In the case of `CCCNc1ncccc1C(N)=O`, the max dye-equivalent concentration is reported as inconclusive: 1.1 nM.
With `CN1CCN(c2nc(N3CCN(c4ccccc4)CC3)ncc2F)CC1` the max dye-equivalent concentration was inconclusive: 1.4 nM.
For `CCOC(=O)c1sc(=S)n(C)c1N`, the max dye-equivalent concentration was inconclusive: 1.4 nM.
In the case of `CN(C)CCn1nnnc1SCC1=C(C(=O)O)N2C(=O)[C@@H](NC(=O)Cc3csc(N)n3)[C@@H]2SC1`, the max dye-equivalent concentration is reported as inconclusive: 1.2 nM.
With `CN(c1ccc(C(=O)NC2CC2)cc1)S(=O)(=O)c1ccccc1` the max dye-equivalent concentration was inconclusive: 1.1 nM.
With `Cc1ccc(-n2c(N)c(C(=O)N3CCOCC3)sc2=S)c(C)c1` the max dye-equivalent concentration was inconclusive: 1.2 nM.
With `Cc1nc2ccccc2c2oc(C(=O)NCc3ccccn3)cc12` the max dye-equivalent concentration was inconclusive: 1.2 nM.
With `CCN(CC)c1ccc2oc(=O)c(C)nc2c1` the max dye-equivalent concentration was inconclusive: 1.3 nM.
For `Nc1nc2ccc(Oc3ccccc3)cc2s1`, the max dye-equivalent concentration was inconclusive: 1.6 nM.
In the case of `Cc1nc2nc(-c3ccccc3)[nH]n2c(=O)c1Cc1ccccc1`, the max dye-equivalent concentration is reported as inconclusive: 1.3 nM.
In the case of `CC1=C(C(=O)N(C)C)C(c2cccc(Cl)c2)NC(=O)N1` (configuration not stated), the max dye-equivalent concentration is reported as inconclusive: 1.1 nM.
For `CC1(C)Oc2ccc(C(=O)N3CCOCC3)cc2N(CC(=O)N2CCOCC2)C1=O`, the max dye-equivalent concentration was inconclusive: 1.6 nM.
With `Cc1c(C(=O)CN2CCOCC2)[nH]c2ccccc12` the max dye-equivalent concentration was “inactive”.
For `Cc1cc(=O)oc2c(OS(C)(=O)=O)c(OS(C)(=O)=O)ccc12`, the max dye-equivalent concentration was inconclusive: 1.1 nM.
For `OC(CNCCCN1CCCCC1)COc1ccccc1` (configuration not stated), the max dye-equivalent concentration was inconclusive: 1.2 nM.
In the case of `COc1cc(S(=O)(=O)NCCN2CCOCC2)c(OC)cc1Cl`, the max dye-equivalent concentration is reported as inconclusive: 2.8 nM.
With `Nc1c(-c2ccccc2)n[nH]c1-c1ccccc1` the max dye-equivalent concentration was inconclusive: 1.6 nM.
For `Cc1ccc(SCCCCN2C(=O)NC(C)(C)C2=O)cc1`, the max dye-equivalent concentration was inconclusive: 1.6 nM.
In the case of `Cn1c(=O)c(=O)n(C)c2cc(S(=O)(=O)NCCc3ccccc3)ccc21`, the max dye-equivalent concentration is reported as inconclusive: 1.8 nM.
For `CCN(CC)CCN1C(=O)C(O)=C(C(=O)c2cccs2)C1c1ccc(C)o1` (configuration not stated), the max dye-equivalent concentration was inconclusive: 1.3 nM.
For `COc1ccccc1CCNC(=O)C1CCCO1` (configuration not stated), the max dye-equivalent concentration was inconclusive: 1.1 nM.
In the case of `CCOC(=O)c1ccc(N2C(=O)c3n[nH]c(C)c3C2c2ccco2)cc1` (configuration not stated), the max dye-equivalent concentration is reported as inconclusive: 1.2 nM.
In the case of `COc1ccccc1/C=c1\sc2nc(-c3ccco3)nn2c1=O`, the max dye-equivalent concentration is reported as “inactive”.
With `COc1cccc(C2=CC(c3ccc(N(C)C)cc3)n3ncnc3N2)c1` (configuration not stated) the max dye-equivalent concentration was inconclusive: 1.1 nM.
With `CCOC(=O)Cn1c(CN(Cc2ccccc2)Cc2ccccc2)nc2c1c(=O)[nH]c(=O)n2C` the max dye-equivalent concentration was inconclusive: 1.5 nM.
In the case of `O=C(c1cc2ccccc2oc1=O)N1CCN(C(=O)C2CCCO2)CC1` (configuration not stated), the max dye-equivalent concentration is reported as inconclusive: 1.4 nM.
With `O=C(NCC1CCCO1)c1nn2cccnc2c1Cl` (configuration not stated) the max dye-equivalent concentration was inconclusive: 1.1 nM.
For `S=C1NCN2CCN(CC2)CNC(=S)C(=S)NCN2CCN(CC2)CNC1=S`, the max dye-equivalent concentration was “inactive”.
With `COC(=O)c1cc(NS(=O)(=O)c2ccc(OC)c(OC)c2)ccc1Cl` the max dye-equivalent concentration was inconclusive: 1.5 nM.
For `COc1cc2nc(N(C)CCCNC(=O)[C@@H]3CCCO3)nc(N)c2cc1OC`, the max dye-equivalent concentration was inconclusive: 1.1 nM.
With `COc1ccc(CCN2C(=O)CC(Sc3ncccc3C(=O)O)C2=O)cc1OC` (configuration not stated) the max dye-equivalent concentration was inconclusive: 1.2 nM.
With `CCOC(=O)C1=C(C)N=c2s/c(=C3\C(=O)Nc4ccccc43)c(=O)n2C1c1ccc2c(c1)OCO2` (configuration not stated) the max dye-equivalent concentration was inconclusive: 2 nM.
For `CC(=O)N1CCc2cc(S(=O)(=O)NC(C(=O)NC3CCCc4ccccc43)C(C)C)ccc21` (configuration not stated), the max dye-equivalent concentration was inconclusive: 1.2 nM.
For `Cn1ccnc1SCC(=O)NC12CC3CC(CC(C3)C1)C2`, the max dye-equivalent concentration was inconclusive: 1.1 nM.
With `O=C1O[C@@H]([C@@H](O)CO)[C@@H](O)[C@H]1O` the max dye-equivalent concentration was inconclusive: 1.2 nM.
In the case of `COC(=O)Cn1c2c(c3cc(C)ccc31)CCCC2`, the max dye-equivalent concentration is reported as inconclusive: 1.3 nM.
In the case of `CCOc1ccccc1OCCn1nnc2ccccc21`, the max dye-equivalent concentration is reported as inconclusive: 1.6 nM.
In the case of `CN1CCc2c(sc3c2c(=O)n(-c2ccccc2)c2nnc(SCc4ccc(Cl)cc4)n32)C1`, the max dye-equivalent concentration is reported as inconclusive: 1.1 nM.
In the case of `CCCN1C2CCCC1CC(NC(=O)c1cc(OC)c(OC)c(OC)c1)C2` (configuration not stated), the max dye-equivalent concentration is reported as inconclusive: 1.6 nM.
In the case of `CNCCCC1c2ccccc2C=Cc2ccccc21`, the max dye-equivalent concentration is reported as inconclusive: 1.7 nM.
For `CC(=O)c1c(C)nn(CCC(=O)O)c1C`, the max dye-equivalent concentration was inconclusive: 1.2 nM.
In the case of `C[C@@H]1CC[C@H]2[C@H](C)[C@H]3[C@H](C[C@H]4[C@@H]5CC=C6C[C@@H](O)CC[C@@]6(C)[C@@H]5C[C@@H](O)[C@]34C)N2C1`, the max dye-equivalent concentration is reported as inconclusive: 1.4 nM.
In the case of `COc1ccc(C(C)(C)C)cc1NC(=O)c1ccoc1C`, the max dye-equivalent concentration is reported as inconclusive: 1.4 nM.
With `Cc1cccn2c(=O)c(C=NCc3ccccc3)c(NCCO)nc12` the max dye-equivalent concentration was inconclusive: 1.1 nM.
